Experimental data from PubChem BioAssay (NCATS).
Where “and” joins values, the source holds several entries; their conditions need not be identical. Identical values can stand only once. The list shows a part of the results. These are further read-outs of the screen, such as a control signal, another cell line or another target. No call is given for them. The list favours compounds with an active or inconclusive main result. For some of these results: Potencies come from curve fits of mixed quality, noted in brackets.

Key:
[1] = A High-Content qHTS Against Drug Library for the Identification of Small Molecules that Inhibit DYT1 Early Onset Primary Dystonia-Associated Cell Pathology (AID 1645839); settings: HEK293 Flp-In EGFP-delE TorsinA, punctate imaging, 48 h; measured here: cell count cytotoxicity
Outline: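 Flp-In T-REx 293 cells with tetracycline-inducible EGFP-delE hTOR1A (WT EGFP-hTOR1A as reference), 800 cells/well; compound added with tetracycline, 48 h at 37 C. Fixed, permeabilized cells imaged; %pathology (punctate TorsinA) primary, cell count counterscreen.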

[2] = qHTS for identification of novel therapeutic agents for treatment of microphthalmiaassociated transcription factor (MiT) renal cell carcinoma (RCC) (AID 1963991); settings: CellTiter-Glo, 48 h; for z-score: stronger effect = lower value
Outline: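 Three TFE3-fusion RCC lines (UOK109, UOK124, UOK145), 500 cells/well in complete medium, were treated with MIPE 4.0 compounds for 48 hours at 37 C. Viability was by CellTiter-Glo luminescence, normalized to DMSO (100%) and empty wells (0%); curves fitted over 11 concentrations.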

[3] = qHTS assay for small molecule antagonists of peroxisome proliferator-activated receptor delta signaling (AID 588535); settings: HEK293T PPARd-UAS-bla, beta-lactamase FRET ratio, 18 h; 460 nm channel;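 also: cells co-treated with a PPAR-delta agonist as stimulator during compound exposure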
Outline: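 Cells were seeded at 4000 per well in assay medium containing 2% charcoal/dextran FBS and held 5 hrs at 37 C. Compounds were then added for 18 hrs. CCF4 substrate was applied for 2 hrs at room temperature before fluorescence reading.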

[4] = qHTS Assay for Modulators of Human Peripheral Myelin Protein 22 (PMP22) Expression/Activity (AID 1967); settings: Cell-based PMP22 reporter, dual-color luciferase ratio
Outline: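 Engineered MSC80 cells, Pmp22-promoter green and EF-alpha red luciferase reporters; 24h compound treatment at 37 °C. Concentration-response fits on green, red and ratio signals, each overlap-corrected, with %Activity normalized to untreated wells.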

[5] = TFE3-RCC UOK109 viability, measured here: UOK109 Z-AUC
[6] = TFE3-RCC viability, measured here: UOK124 Z-AUC
[7] = TFE3-RCC viability, measured here: UOK124 cell viability
[8] = TFE3-RCC viability, measured here: UOK145 Z-AUC
[9] = measured here: red reporter channel AC50, EF-alpha promoter control reporter in MSC80 mouse Schwann cells

CN(C)[C@@H](CCOc1cccc2ccccc12)c1ccccc1
AC50 [1]: 14.1 µM [falling, partial curve, poor fit] | z-score [2, 5]: 0.205 | z-score [2, 6]: 0.494 | AC50 [2, 7]: 20.9 µM [falling, partial curve] | z-score [2, 8]: 0.24

CN(C)CCN(Cc1ccc(Cl)cc1)c1ccccn1
AC50 [1]: 35.5 µM [falling, single point] | z-score [2, 5]: 0.692 | z-score [2, 6]: 0.236 | AC50 [2, 7]: 23.5 µM [falling, single point] | z-score [2, 8]: 0.245

OCCOCCN1CCN(C(c2ccccc2)c2ccc(Cl)cc2)CC1 (stereo not given)
max response [3]: 52.4% | AC50 [1]: 8.91 µM [falling, partial curve]

O[C@@H](CNC[C@H](O)[C@H]1CCc2cc(F)ccc2O1)[C@@H]1CCc2cc(F)ccc2O1
AC50 [1]: 3.55 µM [falling, full curve, poor fit] | z-score [2, 5]: -0.0304 | z-score [2, 6]: -0.165 | AC50 [2, 7]: 20.9 µM [falling, partial curve] | z-score [2, 8]: 1.1 | AC50 ([2]; TFE3-RCC viability, measured here: UOK145 cell viability): 37.2 µM [falling, single point]

Oc1ccc(Cl)cc1Cc1cc(Cl)ccc1O
max response [3]: -12.3% and -45.9% | AC50 [1]: 31.6 µM [falling, single point]

CCc1cccc2c3c([nH]c12)C(CC)(CC(=O)O)OCC3 (stereo not given)
AC50 [4, 9]: 84.9 µM [falling, single point] | AC50 [1]: 35.5 µM [rising, single point]

O=c1[nH]c2ccccc2n1CCCN1CCN(C(c2ccccc2)c2ccccc2)CC1
AC50 ([4]; measured here: green reporter channel AC50, mouse Pmp22 promoter in mouse Schwann cells): 84.9 µM [falling, single point] | AC50 [4, 9]: 84.9 µM [falling, single point] | AC50 [1]: 31.6 µM [falling, single point]
